The supplement of paper PMC4604168 (melanoma cell lines)
The list shows a part of the results. Many values rest on one well or one pass, so single values are uncertain.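 Imaging used 1,536-well plates; nuclei positive for cleaved PARP by antibody were divided by total DNA-stained nuclei to yield the apoptosis fraction. Doses for screening kept most cells viable, and cell lines differ markedly in resting and induced cleaved-PARP levels.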

How the values were obtained:
Experiment in all cases: cleaved PARP positive nuclei fraction relative to DMSO control; melanoma cells; higher = more apoptosis
Settings in all cases: library dose: low library concentration; 72 h
501Mel = test system: 501Mel
A101D = test system: A101D
A2058 = test system: A2058
A375 = test system: A375
C32 = test system: C32
CBRC008 = test system: CBRC008 (line from a melanoma biopsy)
CBRC013 = test system: CBRC013 (line from a melanoma biopsy)
CBRC014 = test system: CBRC014 (line from a melanoma biopsy)
CBRC016 = test system: CBRC016 (line from a melanoma biopsy)
CBRC017 = test system: CBRC017 (line from a melanoma biopsy)
COLO792 = test system: COLO792
COLO800 = test system: COLO800
COLO829 = test system: COLO829
G361 = test system: G361
IPC-298 = test system: IPC-298
IST-MEL1 = test system: IST-MEL1
LB2518-MEL = test system: LB2518-MEL
LOXIMVI = test system: LOXIMVI
MEL-HO = test system: MEL-HO

Row | SMILES | cleaved PARP positive nuclei fraction (501Mel) | cleaved PARP positive nuclei fraction (A101D) | cleaved PARP positive nuclei fraction (A2058) | cleaved PARP positive nuclei fraction (A375) | cleaved PARP positive nuclei fraction (C32) | cleaved PARP positive nuclei fraction (CBRC008) | cleaved PARP positive nuclei fraction (CBRC013) | cleaved PARP positive nuclei fraction (CBRC014) | cleaved PARP positive nuclei fraction (CBRC016) | cleaved PARP positive nuclei fraction (CBRC017) | cleaved PARP positive nuclei fraction (COLO792) | cleaved PARP positive nuclei fraction (COLO800) | cleaved PARP positive nuclei fraction (COLO829) | cleaved PARP positive nuclei fraction (G361) | cleaved PARP positive nuclei fraction (IPC-298) | cleaved PARP positive nuclei fraction (IST-MEL1) | cleaved PARP positive nuclei fraction (LB2518-MEL) | cleaved PARP positive nuclei fraction (LOXIMVI) | cleaved PARP positive nuclei fraction (MEL-HO)
1 | Cn1cncc1[C@@](N)(c1ccc(Cl)cc1)c1ccc2c(c1)c(-c1cccc(Cl)c1)cc(=O)n2C [tipifarnib] + COc1cc2c(Oc3ccc4[nH]c(C)cc4c3F)ncnc2cc1OCCCN1CCCC1 [cediranib] (first compound 0.01 µM, partner dose 0.4 µM) | 89.2% | 19.5% | 53.2% | 55.2% | 72% | 181% | 142% | 77.3% | 32.7% | 89.2% | 82.6% | 140% | 79.3% | 75.2% | 91.7% | 136% | 93.4% | 68% | 135%
2 | O=C(CCCCCCC(=O)Nc1ccccc1)NO [vorinostat] + C=CCn1c(=O)c2cnc(Nc3ccc(N4CCN(C)CC4)cc3)nc2n1-c1cccc(C(C)(C)O)n1 [MK1775] (first compound 0.08 µM, partner dose 0.02 µM) | 91.4% | 75.9% | 27.2% | 105% | 76.5% | 108% | 102% | 215% | 91.8% | 86.6% | 68.4% | 46.1% | 36.5% | 88.7% | 70.2% | 97.9% | 52.3% | 236% | 276%
3 | C#Cc1cccc(Nc2ncnc3cc(OCCOC)c(OCCOC)cc23)c1 [erlotinib] + CC(C)(C)c1cnc(CSc2cnc(NC(=O)C3CCNCC3)s2)o1 [SNS-032] (first compound 0.8 µM, partner dose 0.01 µM) | 70.9% | 80.9% | 132% | 62.7% | 67.1% | 80.6% | 141% | 146% | 74% | 74.5% | 147% | 133% | 60.9% | 74.9% | 89.5% | 195% | 230% | 63% | 129%
4 | C[C@]1(c2nc3c(C(N)=O)cccc3[nH]2)CCCN1 [Veliparib] + C[C@@H]1CCN(C(=O)CC#N)C[C@@H]1N(C)c1ncnc2[nH]ccc12 [CP690550] (first compound 1.4 µM, partner dose 1 µM) | 82.2% | 46.2% | 122% | 138% | 139% | 97.6% | 128% | 218% | 60.9% | 194% | 64.9% | 159% | 165% | 110% | 174% | 31.5% | 108% | 127% | 81.3%
5 | O=C(CCCCCCC(=O)Nc1ccccc1)NO [vorinostat] + COc1cc2c(Oc3ccc4[nH]c(C)cc4c3F)ncnc2cc1OCCCN1CCCC1 [cediranib] (first compound 0.08 µM, partner dose 0.4 µM) | 213% | 41.9% | 40.8% | 116% | 114% | 126% | 90.2% | 97.3% | 164% | 94.6% | 114% | 59.7% | 38.5% | 103% | 47.1% | 63.4% | 43.1% | 135% | 32.4%
6 | CO[C@@H]1[C@H](N(C)C(=O)c2ccccc2)C[C@H]2O[C@]1(C)n1c3ccccc3c3c4c(c5c6ccccc6n2c5c31)C(=O)NC4 [Midostaurin] + COc1cc2c(Oc3ccc4[nH]c(C)cc4c3F)ncnc2cc1OCCCN1CCCC1 [cediranib] (first compound 0.08 µM, partner dose 0.4 µM) | 70.1% | 230% | 69.5% | 282% | 41.3% | 179% | 118% | 83.7% | 271% | 110% | 156% | 90.2% | 42.6% | 79% | 44.9% | 51.6% | 20.3% | 59% | 134%
7 | Cc1ccc(NC(=O)c2cccc(N(C)C)c2)cc1NC(=O)c1ccc(O)cc1 + NC(=O)Nc1cc(-c2cccc(F)c2)sc1C(=O)N[C@H]1CCCNC1 [AZD7762] (first compound 2 µM, partner dose 0.02 µM) | 96.2% | 312% | 102% | 341% | 83.9% | 54.1% | 89.5% | 132% | 207% | 109% | 87.8% | 106% | 33.6% | 76.6% | 102% | 88.3% | 90.6% | 19.1% | 128%
8 | COCC[n+]1c2c(n(Cc3cnccn3)c1C)C(=O)c1ccccc1C2=O + C=CCn1c(=O)c2cnc(Nc3ccc(N4CCN(C)CC4)cc3)nc2n1-c1cccc(C(C)(C)O)n1 [MK1775] (first compound 0.0004 µM, partner dose 0.02 µM) | 89.9% | 188% | 179% | 312% | 105% | 1110% | 92.1% | 91.7% | 89.6% | 110% | 75.8% | 105% | 84.1% | 43% | 55.6% | 150% | 147% | 95.6% | 171%
9 | Nc1cccc2c1CN(C1CCC(=O)NC1=O)C2=O (stereo not drawn) [lenalidomide] + CC1(C)NC(=O)N(c2ccc([N+](=O)[O-])c(C(F)(F)F)c2)C1=O [nilutamide] (first compound 1 µM, partner dose 1 µM) | 183% | 39.5% | 39.7% | 64.1% | 141% | 178% | 89.3% | 78.2% | 96.3% | 88.1% | 64.3% | 32.9% | 79.2% | 67.7% | 93.4% | 33% | 49% | 84.8% | 67.6%
10 | Cc1nc(Nc2ncc(C(=O)Nc3c(C)cccc3Cl)s2)cc(N2CCN(CCO)CC2)n1 [dasatanib] + COc1cc(Nc2ncc(F)c(Nc3ccc4c(n3)NC(=O)C(C)(C)O4)n2)cc(OC)c1OC [Tamatinib] (first compound 0.004 µM, partner dose 0.4 µM) | 328% | 94.4% | 84.2% | 124% | 335% | 241% | 77.5% | 99.5% | 103% | 94.9% | 210% | 166% | 158% | 85.3% | 58.9% | 119% | 132% | 117% | 192%
11 | C=CCNC1=C2C[C@@H](C)C[C@H](OC)[C@H](O)[C@@H](C)/C=C(\C)[C@H](OC(N)=O)[C@@H](OC)/C=C\C=C(/C)C(=O)NC(=CC1=O)C2=O [Tanespimycin] + O=C(CCCCCCC(=O)Nc1ccccc1)NO [vorinostat] (first compound 0.002 µM, partner dose 0.08 µM) | 91.4% | 83.5% | 80.9% | 70.1% | 132% | 50.8% | 75.7% | 90.8% | 123% | 86.4% | 123% | 43% | 84.8% | 141% | 93.9% | 151% | 83.5% | 167% | 106%
12 | C[C@]1(c2nc3c(C(N)=O)cccc3[nH]2)CCCN1 [Veliparib] + NC(=O)Nc1cc(-c2cccc(F)c2)sc1C(=O)N[C@H]1CCCNC1 [AZD7762] (first compound 1.4 µM, partner dose 0.02 µM) | 67.6% | 99.6% | 64.3% | 1430% | 145% | 43.8% | 137% | 76.1% | 65% | 108% | 124% | 223% | 98.5% | 124% | 84.8% | 45.5% | 91.6% | 77% | 62.5%
13 | CC(=O)c1c(C)c2cnc(Nc3ccc(N4CCNCC4)cn3)nc2n(C2CCCC2)c1=O [palbociclib] + Cc1cc(N2CCOCC2)cc2[nH]c(-c3c(NC[C@@H](O)c4cccc(Cl)c4)cc[nH]c3=O)nc12 [BMS536924] (first compound 0.04 µM, partner dose 0.2 µM) | 180% | 219% | 95.1% | 477% | 106% | 84.6% | 73.5% | 120% | 127% | 143% | 137% | 141% | 74.6% | 193% | 62.7% | 120% | 199% | 34.6% | 139%
14 | Cc1nc(Nc2ncc(C(=O)Nc3c(C)cccc3Cl)s2)cc(N2CCN(CCO)CC2)n1 [dasatanib] + Cc1cc(N2CCOCC2)cc2[nH]c(-c3c(NC[C@@H](O)c4cccc(Cl)c4)cc[nH]c3=O)nc12 [BMS536924] (first compound 0.004 µM, partner dose 0.2 µM) | 104% | 67.6% | 179% | 125% | 441% | 318% | 159% | 104% | 39.9% | 103% | 180% | 287% | 60.3% | 125% | 159% | 390% | 327% | 66.6% | 116%
15 | CC1(C)NC(=O)N(c2ccc([N+](=O)[O-])c(C(F)(F)F)c2)C1=O [nilutamide] + Cc1ccc(NC(=O)c2cccc(N(C)C)c2)cc1NC(=O)c1ccc(O)cc1 [ZM336372] (first compound 1 µM, partner dose 2 µM) | 82.7% | 76.4% | 96.7% | 72.6% | 96.5% | 67.3% | 82.4% | 105% | 145% | 105% | 84.5% | 49.6% | 107% | 72% | 302% | 33.2% | 103% | 198% | 37.6%
16 | Cc1nc(Nc2ncc(C(=O)Nc3c(C)cccc3Cl)s2)cc(N2CCN(CCO)CC2)n1 [dasatanib] + Cn1cncc1[C@@](N)(c1ccc(Cl)cc1)c1ccc2c(c1)c(-c1cccc(Cl)c1)cc(=O)n2C [tipifarnib] (first compound 0.004 µM, partner dose 0.01 µM) | 114% | 109% | 119% | 151% | 184% | 278% | 144% | 115% | 75.1% | 117% | 161% | 101% | 18.1% | 169% | 109% | 56.8% | 174% | 88.1% | 179%
17 | C[C@]1(c2nc3c(C(N)=O)cccc3[nH]2)CCCN1 [Veliparib] + COc1cc(Nc2ncc(F)c(Nc3ccc4c(n3)NC(=O)C(C)(C)O4)n2)cc(OC)c1OC [Tamatinib] (first compound 1.4 µM, partner dose 0.4 µM) | 103% | 64.8% | 164% | 45.8% | 158% | 151% | 124% | 95.3% | 70.6% | 108% | 169% | 77.2% | 221% | 27.9% | 123% | 61.2% | 183% | 151% | 160%

Two entries from above, reformatted.

| Row | SMILES | cleaved PARP positive nuclei fraction (501Mel) | cleaved PARP positive nuclei fraction (A101D) | cleaved PARP positive nuclei fraction (A2058) | cleaved PARP positive nuclei fraction (A375) | cleaved PARP positive nuclei fraction (C32) | cleaved PARP positive nuclei fraction (CBRC008) | cleaved PARP positive nuclei fraction (CBRC013) | cleaved PARP positive nuclei fraction (CBRC014) | cleaved PARP positive nuclei fraction (CBRC016) | cleaved PARP positive nuclei fraction (CBRC017) | cleaved PARP positive nuclei fraction (COLO792) | cleaved PARP positive nuclei fraction (COLO800) | cleaved PARP positive nuclei fraction (COLO829) | cleaved PARP positive nuclei fraction (G361) | cleaved PARP positive nuclei fraction (IPC-298) | cleaved PARP positive nuclei fraction (IST-MEL1) | cleaved PARP positive nuclei fraction (LB2518-MEL) | cleaved PARP positive nuclei fraction (LOXIMVI) | cleaved PARP positive nuclei fraction (MEL-HO) |
| --- | --- | --- | --- | --- | --- | --- | --- | --- | --- | --- | --- | --- | --- | --- | --- | --- | --- | --- | --- | --- |
| 10 | Cc1nc(Nc2ncc(C(=O)Nc3c(C)cccc3Cl)s2)cc(N2CCN(CCO)CC2)n1 [dasatanib] + COc1cc(Nc2ncc(F)c(Nc3ccc4c(n3)NC(=O)C(C)(C)O4)n2)cc(OC)c1OC [Tamatinib] (first compound 0.004 µM, partner dose 0.4 µM) | 328% | 94.4% | 84.2% | 124% | 335% | 241% | 77.5% | 99.5% | 103% | 94.9% | 210% | 166% | 158% | 85.3% | 58.9% | 119% | 132% | 117% | 192% |
| 11 | C=CCNC1=C2C[C@@H](C)C[C@H](OC)[C@H](O)[C@@H](C)/C=C(\C)[C@H](OC(N)=O)[C@@H](OC)/C=C\C=C(/C)C(=O)NC(=CC1=O)C2=O [Tanespimycin] + O=C(CCCCCCC(=O)Nc1ccccc1)NO [vorinostat] (first compound 0.002 µM, partner dose 0.08 µM) | 91.4% | 83.5% | 80.9% | 70.1% | 132% | 50.8% | 75.7% | 90.8% | 123% | 86.4% | 123% | 43% | 84.8% | 141% | 93.9% | 151% | 83.5% | 167% | 106% |
